Data reported in article PMC7790283.
No constants are given. Whether binding was seen depends on the method and setting. In cells and extracts the contact can be indirect. Here binding means that the protein was enriched with, or labelled near, the bait; the list need not be complete.

Molecular target: T1, CCCTC-binding factor (CTCF) (human (endogenous in MCF10A)) (UniProt P49711)
T1 sequence: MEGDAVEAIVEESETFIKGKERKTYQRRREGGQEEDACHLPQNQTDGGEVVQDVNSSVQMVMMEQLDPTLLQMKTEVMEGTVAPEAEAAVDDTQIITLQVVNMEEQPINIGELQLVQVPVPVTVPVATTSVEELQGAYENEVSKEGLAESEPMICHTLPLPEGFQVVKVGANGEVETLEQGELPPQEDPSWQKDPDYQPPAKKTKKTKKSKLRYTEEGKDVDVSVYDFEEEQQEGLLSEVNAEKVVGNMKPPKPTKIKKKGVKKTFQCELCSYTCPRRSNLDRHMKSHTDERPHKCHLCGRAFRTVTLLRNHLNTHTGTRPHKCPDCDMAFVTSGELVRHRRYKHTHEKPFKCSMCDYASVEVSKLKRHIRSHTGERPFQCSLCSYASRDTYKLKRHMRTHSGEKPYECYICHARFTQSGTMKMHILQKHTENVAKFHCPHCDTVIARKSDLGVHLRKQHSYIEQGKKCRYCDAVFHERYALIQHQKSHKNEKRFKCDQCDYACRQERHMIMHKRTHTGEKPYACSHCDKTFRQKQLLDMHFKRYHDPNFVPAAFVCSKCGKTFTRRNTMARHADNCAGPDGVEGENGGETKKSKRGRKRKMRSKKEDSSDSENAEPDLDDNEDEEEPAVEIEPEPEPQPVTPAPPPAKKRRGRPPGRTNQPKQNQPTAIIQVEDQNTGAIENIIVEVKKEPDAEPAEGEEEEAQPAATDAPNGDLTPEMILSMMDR
Assay: affinity purification with mass spectrometry; CTCF complexes immunoprecipitated from normal MCF-10A cells with mouse anti-CTCF (B-5; Santa Cruz) or an IgG control; Q Exactive mass spectrometer; false discovery rate 1%

B1: Serine/arginine-rich splicing factor SC-35 (protein, UniProt Q01130 1-221)
chain: MSYGRPPPDVEGMTSLKVDNLTYRTSPDTLRRVFEKYGRVGDVYIPRDRYTKESRGFAFVRFHDKRDAEDAMDAMDGAVLDGRELRVQMARYGRPPDSHHSRRGPPPRRYGGGGYGRRSRSPRRRRRSRSRSRSRSRSRSRSRYSRSKSRSRTRSRSRSTSKSRSARRSKSKSSSVSRSRSRSRSRSRSRSPPPVSKRESKSRSRSKSPPKSPEEEGAVSS
binding: binds
